Measurements reported in PubChem BioAssay AID1259405 (NCATS, 2018).

- Assay: 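Knock-downs that lift recombinant protein yield in hamster ovary cells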 (primary screen)
- Cell system: Chinese hamster CHO-K1 ovary cells with stable secreted eGFP expression
- Knock-down reagent: single siRNA against mouse genes, 0.8 pmol siRNA per well (2 µl of 400 nM stock)
- Duration: 3 days
- Detection: 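Percent of the per-plate non-targeting control median for intracellular GFP per well by laser scanning cytometry and for cell viability by ATP luminescence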
- Scale: GFP, % of control: higher = more GFP per well, higher productivity; viability (ATP), % of control: higher = more viable cells (more ATP)
- Call rule: 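Called active when intracellular GFP, relative to negative control, is at or above 120%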
This is a random part of about 50,000 deposited reagents. In the full data, about 4,000 (8%) are marked active. 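Mouse siRNA library applied to hamster cells; one well for each siRNA.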 A number with no mark means an inactive call. The numbers tell different reagents against one gene apart.

gene,reagent no.,"GFP, % of control","viability (ATP), % of control"
Osbpl3,1,59.6,78.3
Osbpl3,2,86.3,85.1
Osbpl3,3,95.7,104
Krtap19-2,1,41.5,56.7
Krtap19-2,2,90,69.1
Krtap19-2,3,142 (active),73.5
Tap2,1,116,88.9
Tap2,2,77.2,58.1
Tap2,3,101,81.5
Rbp1,1,111,110
Rbp1,2,149 (active),150
Rbp1,3,40.4,70
Tulp2,1,96.1,86.7
Tulp2,2,92.3,86.1
Tulp2,3,120 (active),86.2
Taar2,1,28.4,37.2
Taar2,2,73.2,84
Taar2,3,65.7,66.3
Ins2,1,71.7,40.5
Ins2,2,59.5,59.9
Ins2,3,114,129
Dhrs3,1,80.2,81.2
Dhrs3,2,78.3,82.2
Dhrs3,3,61,44.9
Rtbdn,1,90.3,69.4
Rtbdn,2,28.9,46.3
Rtbdn,3,42.4,70.2
T,1,91,107
T,2,78.7,81.3
T,3,86.9,78.2
Pdia5,1,58.1,46.4
Pdia5,2,102,67.9
Pdia5,3,89.9,79.9
Cnot3,1,24.5,35.3
Cnot3,2,57.3,78
Gatad1,1,74.2,78
Gatad1,2,109,86.6
Gatad1,3,82.5,62.3
Pramel25,1,107,94.8
Pramel25,2,40.4,43.7
Pramel25,3,112,63.4
Kars1,1,64.2,89.3
Kars1,2,45.9,56.4
Kars1,3,81.6,81.3
Raver2,1,72.9,77.9
Raver2,2,62.3,75.9
Raver2,3,95.8,58.6
Smc5,1,152 (active),101
Smc5,2,103,98.2
Cd200r1l,1,103,59.3
Cd200r1l,2,45.8,74.9
Cd200r1l,3,40.6,69.4
Clec4g,1,106,60.3
Clec4g,2,40.3,62.4
Clec4g,3,90.5,50
Kcnk1,1,102,104
Kcnk1,2,68.9,74
Kcnk1,3,92.5,103
Zfp758,1,60.7,72.9
Zfp758,2,66.4,52.3
Zfp758,3,84,84.5
1700041G16Rik,1,72.6,62.8
1700041G16Rik,2,22.8,21.1
1700041G16Rik,3,60,80.9
Npdc1,1,44.7,54.5
Npdc1,2,66.6,83.4
Npdc1,3,62.7,45.1
Or5t5,1,68.8,55.1
Or5t5,2,92.2,60.4
Or5t5,3,68.4,93.8
Pmp2,1,99.6,99.6
Pmp2,2,119,111
Pmp2,3,101,97.2
Gsdma,1,54.4,66.7
Gsdma,2,86.5,80.2
Gsdma,3,101,60
Il10ra,1,86,81.9
Il10ra,2,113,76
Il10ra,3,50.7,69.2
Ddx20,1,75.6,79.3
Ddx20,2,99.3,76.8
Ddx20,3,57.5,100
Sirpa,1,86.9,87.6
Sirpa,2,84.7,78.9

Records listed above with an active call, once more:
gene,reagent no.,"GFP, % of control","viability (ATP), % of control"
Krtap19-2,3,142 (active),73.5
Rbp1,2,149 (active),150
Tulp2,3,120 (active),86.2
Smc5,1,152 (active),101
